Data: article PMC7819943, “Rice protein-binding microarrays: a tool to detect cis-acting elements near promoter regions in rice”
The list shows a part of the results.

The sequences below were run against T1, OsSMF1 (Oryza sativa, UniProt Q6ZLB0 1-436) (assay: protein-binding microarray (RPBM); PBS, 2% BSA, 51.3 ng/ul salmon testes DNA, 50 uM zinc acetate, 200 nM TF, 25 C, 1 h; high values mean tight binding). Conditions: protein: recombinant; tags: N-terminal polyhistidine and DsRed monomer fusion (pET32a); chain copies: 2; label: CyDye5-dUTP incorporated in the synthesized complementary strand; 3' TTTTT single-stranded linker to array surface; dsDNA, one strand shown.
T1 sequence: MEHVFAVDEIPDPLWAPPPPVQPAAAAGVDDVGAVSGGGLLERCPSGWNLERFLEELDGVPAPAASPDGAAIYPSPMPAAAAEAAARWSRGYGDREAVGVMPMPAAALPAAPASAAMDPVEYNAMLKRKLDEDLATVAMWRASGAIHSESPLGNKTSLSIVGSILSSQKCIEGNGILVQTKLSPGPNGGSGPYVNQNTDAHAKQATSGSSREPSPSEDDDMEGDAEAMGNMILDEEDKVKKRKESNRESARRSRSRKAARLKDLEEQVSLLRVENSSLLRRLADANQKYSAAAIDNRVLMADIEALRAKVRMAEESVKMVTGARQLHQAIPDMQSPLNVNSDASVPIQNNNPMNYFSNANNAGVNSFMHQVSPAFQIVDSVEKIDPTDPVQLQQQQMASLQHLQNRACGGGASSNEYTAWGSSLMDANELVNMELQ
How it was run: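 A custom Agilent array was converted to double-stranded form by primer extension with Cy5-dUTP and blocked with 2% BSA. Protein at 200 nM in PBS with 2% BSA, salmon testes DNA and 50 µM zinc acetate was applied for 1 h at 25 °C, followed by washing. The proteins were polyhistidine–DsRed N-terminal fusions of transcription factors, expressed in E. coli BL21-CodonPlus and Ni–NTA-purified. The binding signal is per-feature fluorescence intensity (arbitrary units) from an Axon 4000B scanner.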

| Sequence | binding signal |
| --- | --- |
| TTGTCAAAATCACCGACACGTACCAACCAGCTGGAGTATTCGGAGTCACCTAGTGCAG | 4080 fluorescence intensity (a.u.) |
| AGAGAGAGAAAGATGGGAACGAGAACACCGAGGACCACATCGGAGTCACCTAGTGCAG | 12300 fluorescence intensity (a.u.) |
| AAGGAATTTTCTCCAATTGTTTATACGCTTGAAAGTGTTTCGGAGTCACCTAGTGCAG | 3590 fluorescence intensity (a.u.) |
| GCCTTCATGACGAAGATGTTAGATGACATTACTCGTCAGACGGAGTCACCTAGTGCAG | 3320 fluorescence intensity (a.u.) |
| TTCCATCCAGAGTGCGTCACGAACGCGCCAGTCGCCCGGTCGGAGTCACCTAGTGCAG | 3990 fluorescence intensity (a.u.) |
| TGACCGGCTCACCGGCGGAAGCGCGGCAGCGGCGCGGCCTCGGAGTCACCTAGTGCAG | 3440 fluorescence intensity (a.u.) |
| CTTGGTCTGGGGCTCGGGGATGTGGCGGCGGGCCGGCGGCCGGAGTCACCTAGTGCAG | 4040 fluorescence intensity (a.u.) |
| CCGGGATTTTATCTGGTTTACGACGCATGGGCCAACTCACCGGAGTCACCTAGTGCAG | 35900 fluorescence intensity (a.u.) |
| ACATCCGTCGCTTCGTCATATCAGACTCCCCACCCTGGAACGGAGTCACCTAGTGCAG | 3430 fluorescence intensity (a.u.) |
| CGATTTAAATACTTGACGGGGAGGGGATGATATACCCTTTCGGAGTCACCTAGTGCAG | 3150 fluorescence intensity (a.u.) |
| GGCGCGTGACGACGGATGCTGCAGCGGCGCGGACGTCACCCGGAGTCACCTAGTGCAG | 18900 fluorescence intensity (a.u.) |
| TGCTCTGTAGACAGGATACAATGGCACACCTGGTCCTACACGGAGTCACCTAGTGCAG | 28300 fluorescence intensity (a.u.) |
| TCTTGCGACGATCGTGTGGGGTGGGTTCGTGTGCTCTCTCCGGAGTCACCTAGTGCAG | 6600 fluorescence intensity (a.u.) |
| AGCAATACTCATTTTCTAAATGCTTACATCATTCTGCGTTCGGAGTCACCTAGTGCAG | 3770 fluorescence intensity (a.u.) |
| ATTTTGGTCTCAGCAGTGCCACCGTGTCAGCAGGGGCAGCCGGAGTCACCTAGTGCAG | 7800 fluorescence intensity (a.u.) |
| CGATCGATCGATCATATCGCTAGCTAGCTTGCTTTAATTTCGGAGTCACCTAGTGCAG | 17100 fluorescence intensity (a.u.) |
| TGGCAGACACCAATTTGCTGCACGTGTACATATCGACCCACGGAGTCACCTAGTGCAG | 4210 fluorescence intensity (a.u.) |
| CTGTCCTTCTTCATCGCCAATGGCTGCCATGCCAACACCACGGAGTCACCTAGTGCAG | 3370 fluorescence intensity (a.u.) |
| TAAGTCTTCGTCCCATGTGGTAATGACATGACACTTACGTCGGAGTCACCTAGTGCAG | 4340 fluorescence intensity (a.u.) |
| GTTGCCCATCAACCAAGAGCTAGCACAGCACCGGTGGCAGCGGAGTCACCTAGTGCAG | 3250 fluorescence intensity (a.u.) |
| CCAGGTAGTCATCAGTCTGTCACGCCAAACGGGCAAGCAACGGAGTCACCTAGTGCAG | 3370 fluorescence intensity (a.u.) |
| AAACACACACATGTACACACACACACTCTCTCTCTCTCTCCGGAGTCACCTAGTGCAG | 4080 fluorescence intensity (a.u.) |
| GCAAATATTCCTCTTGCCGTGTCACTGGCTTGCTCTGCTCCGGAGTCACCTAGTGCAG | 5330 fluorescence intensity (a.u.) |
| TACTGAAAATGAGTTGGCATCACTACATCACTGCGCCTCGCGGAGTCACCTAGTGCAG | 7160 fluorescence intensity (a.u.) |
| ACCCGCCGCGCCACACGTGTCCGCGACGCCGGCACGTGCCCGGAGTCACCTAGTGCAG | 7160 fluorescence intensity (a.u.) |
| TGATCTTTCTCTCCAAAGAATCGTGCTAGCTCGTTGGAAACGGAGTCACCTAGTGCAG | 18000 fluorescence intensity (a.u.) |
| CACATGATCGATCGCATCAACTGACTCCCATCATCTCCGGCGGAGTCACCTAGTGCAG | 3440 fluorescence intensity (a.u.) |

A stretch taken from the entries so far:

| Sequence | binding signal |
| --- | --- |
| TGACCGGCTCACCGGCGGAAGCGCGGCAGCGGCGCGGCCTCGGAGTCACCTAGTGCAG | 3440 fluorescence intensity (a.u.) |
| CTTGGTCTGGGGCTCGGGGATGTGGCGGCGGGCCGGCGGCCGGAGTCACCTAGTGCAG | 4040 fluorescence intensity (a.u.) |
| CCGGGATTTTATCTGGTTTACGACGCATGGGCCAACTCACCGGAGTCACCTAGTGCAG | 35900 fluorescence intensity (a.u.) |
| ACATCCGTCGCTTCGTCATATCAGACTCCCCACCCTGGAACGGAGTCACCTAGTGCAG | 3430 fluorescence intensity (a.u.) |

More records:

| Sequence | binding signal |
| --- | --- |
| ATAGGAGAGCTACACGTGGCAGTTGACGAGACGGACACACCGGAGTCACCTAGTGCAG | 8780 fluorescence intensity (a.u.) |
| CAGCCATCACGGTCGCGCCAGCGACGCCACCGCCGCCCCACGGAGTCACCTAGTGCAG | 3750 fluorescence intensity (a.u.) |
| TCCATGTTAATTAATTTGATCAGTTGGACGCATATTTGCGCGGAGTCACCTAGTGCAG | 3430 fluorescence intensity (a.u.) |
| CAAATACTAAATGATTTCAAATGAAAACGTCATCAACAACCGGAGTCACCTAGTGCAG | 3560 fluorescence intensity (a.u.) |
| TCCACCCCGAAGCAGCAGCATCCACCGCCACGCAGAGAGCCGGAGTCACCTAGTGCAG | 3270 fluorescence intensity (a.u.) |
| GGCAGCGGCAGCAAACCAAGGGTAGAATAGTCTACCGGAACGGAGTCACCTAGTGCAG | 34300 fluorescence intensity (a.u.) |
| CGCGTAGATTGAAACTGGACAAGCAGTACATGTACAAAATCGGAGTCACCTAGTGCAG | 3170 fluorescence intensity (a.u.) |
| ACCTCCTACAACCAGTCCCGATGCAGGCAGAGGCAGCGCCCGGAGTCACCTAGTGCAG | 35500 fluorescence intensity (a.u.) |
| GTGGCCGTGTCATTGTCACTGATTCATGTGATGCTGTTGACGGAGTCACCTAGTGCAG | 4350 fluorescence intensity (a.u.) |
| CCCACGAGCACTCGCCACGTACATACTCCCTACTTCCCTACGGAGTCACCTAGTGCAG | 7610 fluorescence intensity (a.u.) |
| AAGTTCGCCACGCACTTGCCAATTAAATTTGCCATGGCCTCGGAGTCACCTAGTGCAG | 5770 fluorescence intensity (a.u.) |
| ATTTCTCCAGTCACGTTACTGCTTACTACTGCTTACTACTCGGAGTCACCTAGTGCAG | 4240 fluorescence intensity (a.u.) |
| CCGGCCTAGTCTTCGAAGATGCTCATAAGGGTAGAATTTGCGGAGTCACCTAGTGCAG | 3330 fluorescence intensity (a.u.) |
| TTTCTTAACTCGACACGCAATGTATTGTTATTTACGATTCCGGAGTCACCTAGTGCAG | 3740 fluorescence intensity (a.u.) |
| AGCTGAGCTGCCACAAATCACACGACACATATTGCTCCTTCGGAGTCACCTAGTGCAG | 3250 fluorescence intensity (a.u.) |
| GCAACCACCGTGACGCCGCCGCGCGCCCACTGGAACACGTCGGAGTCACCTAGTGCAG | 5010 fluorescence intensity (a.u.) |
| GCGTGTGACTATAATTACGTGGCTTTCCTTCCTGAAGCCGCGGAGTCACCTAGTGCAG | 12300 fluorescence intensity (a.u.) |
| CAGTGCACTCGGTGCTGGCTGTTTTGGCCAATCGGTGTTGCGGAGTCACCTAGTGCAG | 3320 fluorescence intensity (a.u.) |
| CCACACTTACTCAGCCGCCACGTAGACCAAAACCGGGGTCCGGAGTCACCTAGTGCAG | 21500 fluorescence intensity (a.u.) |
| GCCCGCGCGAAATGACGCTACTACCCTCGTTGCTCTTATCCGGAGTCACCTAGTGCAG | 5480 fluorescence intensity (a.u.) |
| GCAGCCGCCGCACTGTAGTACGTGGTAGTAGTACTAACCACGGAGTCACCTAGTGCAG | 4180 fluorescence intensity (a.u.) |
| TTGGTGACAAATCCAGCTCGCTCTTGGGACCGAGAGTCCACGGAGTCACCTAGTGCAG | 27800 fluorescence intensity (a.u.) |
| GGATTAGGGATGTCATACTGATTCAGCATAAAGTTGAGCGCGGAGTCACCTAGTGCAG | 3970 fluorescence intensity (a.u.) |
| TAAATTTTAAAATTCAAAGTTTTGCTGTGACTGATGAGTCCGGAGTCACCTAGTGCAG | 3910 fluorescence intensity (a.u.) |
| CTAAGTACCCTGACATTACCAACGTTCATCTCCACGGCACCGGAGTCACCTAGTGCAG | 3560 fluorescence intensity (a.u.) |
| CTCAAACGCGCGCGCGAGAGGAGGGGAGGGGTTTGGTTTGCGGAGTCACCTAGTGCAG | 3420 fluorescence intensity (a.u.) |
| GGACGAAGTCCATGCGGCGCTCGCGCTCCTCCTCCTGCAGCGGAGTCACCTAGTGCAG | 4300 fluorescence intensity (a.u.) |
